For 33 compounds, T/C and survivor count results are on record in PubChem BioAssay AID330 (DTP/NCI, 2004).

The test system of the assay is P388 leukemia ip, CD2F1 mice, survival T/C. In words: NCI In Vivo Anticancer Drug Screen. Data for tumor model P388 Leukemia (intraperitoneal) in CD2F1 (CDF1) mice. The settings on record: T/C endpoint: median survival time, higher T/C = longer survival.
Setting [1] is: dose: 200.0 mg/kg/injection, schedule: Q01DX009 (ip), vehicle: saline with Tween-80.
Where [2] appears, read: dose: 240.0 mg/kg/injection, schedule: Q01DX005 (ip), vehicle: Klucel (hydroxypropylcellulose) (HPC).
Setting [3] is: dose: 120.0 mg/kg/injection, schedule: Q01DX005 (ip), vehicle: saline.
Setting [4] is: dose: 240.0 mg/kg/injection, schedule: Q01DX005 (ip), vehicle: saline.
The mark [5] stands for this setting: dose: 100.0 mg/kg/injection, schedule: Q01DX005 (ip), vehicle: saline with Tween-80.
[6] abbreviates: dose: 240.0 mg/kg/injection, schedule: Q01DX005 (ip), vehicle: saline with Tween-80.
[7] abbreviates: dose: 100.0 mg/kg/injection, schedule: Q01DX005 (ip), vehicle: Klucel (hydroxypropylcellulose) (HPC).
The mark [8] stands for this setting: dose: 200.0 mg/kg/injection, schedule: Q01DX005 (ip), vehicle: Klucel (hydroxypropylcellulose) (HPC).
The mark [9] stands for this setting: dose: 200.0 mg/kg/injection, schedule: Q01DX009 (ip), vehicle: Klucel (hydroxypropylcellulose) (HPC).

The list does not hold the whole screen: it is rich in T/C values a quarter to a half above the control, in often repeated tests (any T/C) and in doses without a T/C. Further doses and runs are listed elsewhere. T/C: endpoint of the treated group in % of that of the vehicle group. Some entries give survivors of the animals treated and no T/C: the source files T/C as zero there, which appears to mark a toxic dose or a test without result, not a measured value. Some doses without a T/C left all or most animals alive at the check, yet need not have been tolerated: the source hardly ever lists a survival T/C far under the control, and the zero likely stands for such cases as well. Counts of survivors are from the toxicity check (mostly the fifth day) where no day follows; animals may have died later. Schedules are NCI's codes, taken here to give the interval after Q, in days (D) or hours (H), and the number of doses after X. Counts like (3×) count equal records among those shown. Some entries were tested several times; the values are given in rising order. For survival time, this PubChem deposit counts one and a half times the control or more as active, and values a quarter to a half above the control carry no call in these data; other NCI protocols may use other cut-offs.

For `COc1ccc(S(=O)(=O)N=N/C=C2\C=CC=CN2O)cc1OC`, the T/C is 125 % of control (dose: 50.0 mg/kg/injection, schedule: Q01DX009 (ip), vehicle: saline with Tween-80, evaluated on day 20); 130 % of control (dose: 50.0 mg/kg/injection, schedule: Q01DX009 (ip), vehicle: saline with Tween-80, evaluated on day 30); 138 % of control (dose: 100.0 mg/kg/injection, schedule: Q01DX009 (ip), vehicle: saline with Tween-80, evaluated on day 20); 140 % of control (dose: 100.0 mg/kg/injection, schedule: Q01DX009 (ip), vehicle: saline with Tween-80, evaluated on day 30). Also, the survivor count under setting [1] was 0 of 6 (2×).

For the compound `c1ccc2c(SCCSc3c4ccccc4nc4ccccc34)c3ccccc3nc2c1`, under setting [2], the survivor count is on record as 0 of 6.

For `CCCCCCCCCCCCC1C(=O)NCCNCCCNCCNC1=O`, the survivor count is, setting by setting: (dose: 100.0 mg/kg/injection, schedule: Q01DX005 (ip), vehicle: saline) 6 of 6; (dose: 200.0 mg/kg/injection, schedule: Q01DX005 (ip), vehicle: saline) 2 of 6.

Turning to `c1cc2n[pH]nc2cn1` (centres undefined), the survivor count is, setting by setting: (dose: 60.0 mg/kg/injection, schedule: Q01DX005 (ip), vehicle: saline) 0 of 6; under setting [3], 0 of 6; under setting [4], 0 of 6.

Take `CCC/C(=N\NC(=S)N1CCCCCC1)c1ccccn1`: the T/C is, setting by setting: (dose: 50.0 mg/kg/injection, schedule: Q01DX005 (ip), vehicle: saline with Tween-80) 132 % of control; under setting [5], 133 % of control. Further, the survivor count runs as follows: under setting [5], 3 of 5; (dose: 200.0 mg/kg/injection, schedule: Q01DX005 (ip), vehicle: saline with Tween-80) 0 of 5 and 3 of 6.

`CC(C)[C@H](N)C(=O)NCCNC(=O)[C@@H](N)C(C)C`: the survivor count under setting [4] is 5 of 6.

Regarding `CN(Cc1cnc2nc(N)nc(N)c2n1)c1c(Cl)cc(C(=O)NC(CCC(=O)O)C(=O)O)cc1Br` (centres undefined), where the note is “dose: 264.0 mg/kg/injection, schedule: Q04DX003 (ip), vehicle: saline with Tween-80”, the T/C is 141 % of control.

As to `COc1ccc2c(n1)c(=NCCCCCCN=c1c3ccc(Cl)cc3n(O)c3ccc(OC)nc13)c1ccc(Cl)cc1n2O`, where the note is “dose: 400.0 mg/kg/injection, schedule: Q04DX003 (ip), vehicle: Klucel (hydroxypropylcellulose) (HPC)”, the survivor count is given as 2 of 6.

For the compound `C=C(CN1CCOCC1)C(=O)c1ccccc1`, the survivor count (dose: 15.0 mg/kg/injection, schedule: Q01DX005 (ip), vehicle: saline) is reported as 0 of 6 and the survivor count (dose: 30.0 mg/kg/injection, schedule: Q01DX005 (ip), vehicle: saline) is on record as 0 of 6.

For `O=C1NC(=O)C(=NC2C(=O)NC(=O)NC2=O)C(=O)N1`, the survivor count under setting [3] is reported as 6 of 6.

In the case of `O=C(Oc1ccccc1)N1CCCSC1=S`, under setting [6], the survivor count is recorded as 2 of 6.

`COc1cccc2c1C(=O)c1c(O)c3c(c(O)c1C2=O)C[C@@](O)(C(C)=O)C[C@@H]3OC1CC(N2CCC(OC)CC2)C(O)C(C)O1` (some centres undefined): the T/C (dose: 3.12 mg/kg/injection, schedule: Q04DX003 (ip), vehicle: water, evaluated on day 30) is 126 % of control; the T/C (dose: 3.12 mg/kg/injection, schedule: Q04DX003 (ip), vehicle: water, evaluated on day 35) was 142 % of control; the T/C (dose: 12.5 mg/kg/injection, schedule: Q04DX003 (ip), vehicle: water) is 140 % of control.

With `Cc1ccc(C)c2c1C(=O)c1c(C)ccc(C)c1C2=O`, the survivor count by setting is: (dose: 6.25 mg/kg/injection, schedule: Q01DX005 (ip), vehicle: Klucel (hydroxypropylcellulose) (HPC)) 5 of 5; (dose: 12.5 mg/kg/injection, schedule: Q01DX005 (ip), vehicle: Klucel (hydroxypropylcellulose) (HPC)) 5 of 5; (dose: 25.0 mg/kg/injection, schedule: Q01DX005 (ip), vehicle: Klucel (hydroxypropylcellulose) (HPC)) 5 of 5; under setting [7], 5 of 5.

As for `CN(C)c1nc(Cl)c2cc(Cl)ccc2n1`, under setting [2], the survivor count was 3 of 6.

For the compound `O=C(O)c1cc(-c2ccc(Cl)cc2)nc2c1ccc1ccccc12`, under setting [8], the survivor count is on record as 0 of 6.

As for `COc1ccc(/C=C2/OC(=O)C(C(C)=O)=C2O)cc1`, the survivor count under setting [9] is reported as 2 of 6.

With `COc1ccccc1N/N=c1\c2nc3ccccc3nc1n(-c1ccccc1C)c(=S)n2-c1ccccn1`, under setting [6], the survivor count is 1 of 6.

As to `CC(C)C(Nc1ncnc2c1CCc1ccccc1-2)C(=O)O` (centres undefined), under “dose: 200.0 mg/kg/injection, schedule: Q04DX002 (ip), vehicle: saline with Tween-80”, the survivor count is on record as 2 of 6.

For the compound `Cn1c(=O)ccc2c1nc1ccccc1[n+]2[O-]`, the survivor count under setting [6] is reported as 0 of 6.

In the case of `NNP(=O)(NN)C(Cl)(Cl)Cl`, the survivor count reads like this: under setting [3], 6 of 6; under setting [4], 0 of 6.

As to `CC(C)CC(NC(=O)C(CSCc1ccccc1)NC(=O)OCc1ccccc1)C(N)=O` (centres undefined), the survivor count (dose: 50.0 mg/kg/injection, schedule: Q01DX005 (ip), vehicle: Klucel (hydroxypropylcellulose) (HPC)) is given as 6 of 6; the survivor count under setting [7] was 6 of 6; the survivor count under setting [8] is recorded as 6 of 6.

With `OCc1c(Cl)nc2n1CCS2`, the survivor count (dose: 100.0 mg/kg/injection, schedule: Q01DX001 (ip), vehicle: saline with Tween-80) was 0 of 6.

As for `COc1c2occc2c(NC(=O)C(F)(F)F)c2ccc(=O)oc12`, the survivor count (dose: 400.0 mg/kg/injection, schedule: Q04DX002 (ip), vehicle: saline) is reported as 1 of 6.

For the compound `CC(C)CCCCCCCCCCCCC(=O)NCC(=O)NC1C(C)OC(Nc2ncnc3nc[nH]c23)C(O)C1O` (centres undefined), the T/C runs as follows: (dose: 0.25 mg/kg/injection, schedule: Q01DX009 (ip), vehicle: other) 141 % of control; (dose: 0.5 mg/kg/injection, schedule: Q01DX009 (ip), vehicle: other) 149 % of control. For the same compound, where the note is “dose: 4.0 mg/kg/injection, schedule: Q01DX009 (ip), vehicle: other”, the survivor count is given as 5 of 6.

In the case of `Cc1c(-c2ccc(C(=N)N)cc2)oc(-c2ccc(C(=N)N)cc2)c1C`, the T/C (dose: 12.5 mg/kg/injection, schedule: Q01DX009 (ip), vehicle: saline with Tween-80) is 136 % of control.

With `CC1(C)CCCC2=C1C(=O)N(SC(Cl)(Cl)Cl)C2=O`, the survivor count by setting is: under setting [7], 0 of 6; under setting [8], 0 of 6.

As to `C(=N/NC1=NCCN1)/c1ccnc2ccccc12`, the survivor count is given as 1 of 6 under setting [3] and 0 of 6 under setting [4].

Take `CCCCN(CCCC)P(=O)(N1CC1)N1CC1`: the T/C (dose: 12.5 mg/kg/injection, schedule: Q01DX009 (ip), vehicle: saline) was 145 % of control. The survivor count (dose: 37.5 mg/kg/injection, schedule: Q01DX009 (ip), vehicle: saline) is listed as 6 of 6; the survivor count (dose: 200.0 mg/kg/injection, schedule: Q04DX003 (ip), vehicle: saline) was 2 of 6; the survivor count (dose: 400.0 mg/kg/injection, schedule: Q04DX003 (ip), vehicle: saline) is on record as 0 of 6.

Regarding `CCCCCCC(=O)/C=C/c1ccc(OC(=O)c2ccc(OC)cc2)cc1`, the survivor count (dose: 25.0 mg/kg/injection, schedule: Q01DX009 (ip), vehicle: saline with Tween-80) is on record as 5 of 6; the survivor count (dose: 100.0 mg/kg/injection, schedule: Q01DX009 (ip), vehicle: saline with Tween-80) is 6 of 6; the survivor count under setting [1] was 6 of 6.

Turning to `CC(C)NC(=S)NCc1ccc(Cl)c(Cl)c1`, the survivor count (dose: 200.0 mg/kg/injection, schedule: Q01DX009 (ip), vehicle: other) is 0 of 6.

In the case of `CN1CCCSC1=S`, the survivor count is, setting by setting: (dose: 50.0 mg/kg/injection, schedule: Q01DX009 (ip), vehicle: Klucel (hydroxypropylcellulose) (HPC)) 3 of 6; (dose: 100.0 mg/kg/injection, schedule: Q01DX009 (ip), vehicle: Klucel (hydroxypropylcellulose) (HPC)) 0 of 6; under setting [9], 0 of 6.

For `CN(C)c1ccc(/C=C/C=N/NC(=S)NC23CC4CC(CC(C4)C2)C3)cc1`, under setting [6], the survivor count is 6 of 6.

Regarding `O=C(Nc1c(Cl)cccc1Cl)Oc1cccc2cccnc12`, the survivor count reads like this: (dose: 120.0 mg/kg/injection, schedule: Q01DX005 (ip), vehicle: saline with Tween-80) 6 of 6; under setting [6], 6 of 6.
